Experimental data published in patent US20200155655A1.
No constants are given. Whether binding was seen depends on the method and setting. Some results given as binding are weak or reduced against the parent protein; the word gives no strength.

Protein sequences, listed by entry. Tags and fused reporters are not part of them. Lines headed by an entry give the natural chain unless they say otherwise; changes in a name come on top.
UniProt Q8NEB9: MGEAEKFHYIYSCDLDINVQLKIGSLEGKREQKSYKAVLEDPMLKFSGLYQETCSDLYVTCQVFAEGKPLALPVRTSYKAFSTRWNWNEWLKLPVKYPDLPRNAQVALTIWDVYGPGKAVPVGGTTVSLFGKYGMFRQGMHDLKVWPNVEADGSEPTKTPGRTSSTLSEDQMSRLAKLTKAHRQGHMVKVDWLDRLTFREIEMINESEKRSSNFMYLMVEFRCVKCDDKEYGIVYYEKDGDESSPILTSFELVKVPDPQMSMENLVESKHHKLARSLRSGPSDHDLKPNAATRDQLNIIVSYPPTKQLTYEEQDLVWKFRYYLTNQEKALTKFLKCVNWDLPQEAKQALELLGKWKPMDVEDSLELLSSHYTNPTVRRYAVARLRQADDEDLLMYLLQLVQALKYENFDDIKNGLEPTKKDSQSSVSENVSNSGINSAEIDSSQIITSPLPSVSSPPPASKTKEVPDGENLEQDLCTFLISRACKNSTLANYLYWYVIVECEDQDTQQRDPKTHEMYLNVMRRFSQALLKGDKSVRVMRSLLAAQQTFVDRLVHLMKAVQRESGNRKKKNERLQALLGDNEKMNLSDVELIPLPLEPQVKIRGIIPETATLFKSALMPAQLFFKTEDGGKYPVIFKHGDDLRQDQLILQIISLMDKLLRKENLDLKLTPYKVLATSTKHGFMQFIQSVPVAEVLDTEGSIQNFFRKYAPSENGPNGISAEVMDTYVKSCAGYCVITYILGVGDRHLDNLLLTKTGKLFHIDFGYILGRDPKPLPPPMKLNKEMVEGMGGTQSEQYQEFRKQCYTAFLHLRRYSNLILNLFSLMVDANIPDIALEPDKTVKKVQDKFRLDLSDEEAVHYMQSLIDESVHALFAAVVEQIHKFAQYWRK
UniProt Q9P2J5: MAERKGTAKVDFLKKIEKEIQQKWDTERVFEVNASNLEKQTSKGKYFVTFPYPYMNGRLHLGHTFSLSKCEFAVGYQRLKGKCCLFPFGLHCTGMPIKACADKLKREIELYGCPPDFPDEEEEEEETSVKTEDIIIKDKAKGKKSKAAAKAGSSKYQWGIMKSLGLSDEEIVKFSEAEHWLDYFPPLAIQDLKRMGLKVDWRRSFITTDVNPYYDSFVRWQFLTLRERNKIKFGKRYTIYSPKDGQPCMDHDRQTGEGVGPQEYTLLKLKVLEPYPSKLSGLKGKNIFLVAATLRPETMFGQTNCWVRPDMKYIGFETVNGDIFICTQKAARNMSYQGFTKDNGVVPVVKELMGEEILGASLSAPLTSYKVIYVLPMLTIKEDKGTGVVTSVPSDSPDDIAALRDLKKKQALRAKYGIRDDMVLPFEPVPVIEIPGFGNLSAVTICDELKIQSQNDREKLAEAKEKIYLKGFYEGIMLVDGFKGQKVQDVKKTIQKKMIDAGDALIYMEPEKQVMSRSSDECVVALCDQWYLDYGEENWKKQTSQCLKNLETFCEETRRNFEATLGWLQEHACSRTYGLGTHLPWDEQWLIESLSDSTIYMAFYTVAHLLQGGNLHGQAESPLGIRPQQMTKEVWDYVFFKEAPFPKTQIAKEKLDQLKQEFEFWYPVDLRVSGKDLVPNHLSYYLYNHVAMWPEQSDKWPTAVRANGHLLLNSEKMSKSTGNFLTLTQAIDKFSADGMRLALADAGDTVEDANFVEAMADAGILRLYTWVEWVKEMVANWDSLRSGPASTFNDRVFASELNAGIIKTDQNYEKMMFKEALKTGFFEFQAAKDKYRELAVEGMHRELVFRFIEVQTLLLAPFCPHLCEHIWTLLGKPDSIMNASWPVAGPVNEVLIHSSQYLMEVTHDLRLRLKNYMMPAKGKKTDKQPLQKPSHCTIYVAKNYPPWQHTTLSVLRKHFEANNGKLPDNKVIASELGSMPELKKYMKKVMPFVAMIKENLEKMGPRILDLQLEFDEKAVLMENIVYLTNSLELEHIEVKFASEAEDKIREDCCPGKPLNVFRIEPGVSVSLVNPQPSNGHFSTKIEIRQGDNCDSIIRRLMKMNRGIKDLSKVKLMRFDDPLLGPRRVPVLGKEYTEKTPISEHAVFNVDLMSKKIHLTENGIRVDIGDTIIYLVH

What was measured:
[1] = biological target: Myc-Vps34 (UniProt Q8NEB9); assay: anti-Flag immunoprecipitation from HEK293 cells, Western blot
[2] = biological target: Myc-Vps34 (UniProt Q8NEB9); assay: told with the kinase assay of Example 2-2; binding from the fragment immunoprecipitation

Row | binding [1] | binding [2] | Substance
1 | binds | – | Flag-LRS F50A/Y52A (from UniProt Q9P2J5 1-1176) (enzyme)
2 | – | binds | LRS 1-976 amino acid fragment (from UniProt Q9P2J5 1-976) (enzyme)
3 | binds | – | Flag-LRS 361-720 amino acid fragment (from UniProt Q9P2J5 361-720) (enzyme)
4 | binds | – | Flag-LRS wild type (WT) (from UniProt Q9P2J5 1-1176) (enzyme)
